Out of some 2,800 compounds screened, fewer than 10 were called active. Roughly 7% stayed inconclusive and do not appear here. The call rests on the fitted dose curve; in most records, active means well fitted inhibition curve with a large enough effect; inconclusive means small, poorly fitted or top-dose-only effect; inactive means no such curve, though single readings can be large or run the other way. Some of the results follow.

By UniProt entry, the sequences of proteins in these tests, tags left out. Where a name states a change or a piece, a line headed by the entry shows the natural chain unless it says otherwise.
UniProt C7C422: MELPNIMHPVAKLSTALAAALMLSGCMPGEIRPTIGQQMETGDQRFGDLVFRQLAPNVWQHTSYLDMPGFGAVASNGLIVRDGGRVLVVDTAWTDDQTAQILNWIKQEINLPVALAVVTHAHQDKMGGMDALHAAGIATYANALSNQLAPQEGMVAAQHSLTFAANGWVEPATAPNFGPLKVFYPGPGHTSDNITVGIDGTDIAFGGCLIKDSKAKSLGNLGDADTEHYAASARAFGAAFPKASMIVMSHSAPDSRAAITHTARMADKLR

The target in this assay is Metallo-beta-lactamase type 2 (Klebsiella pneumoniae) (UniProt C7C422). Nature of the assay: qHTS to identify inhibitors of the New Delhi Metallo-beta-lactamase (NDM): Nitrocefin screen against the machine-based learning selections. Further: % of control where 0% means no effect. The following applies: NDM-1 enzyme, nitrocefin hydrolysis, absorbance 485 nm; activity, negative = inhibition: at the top concentration. The essentials:
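Hydrolysis by 2 nM NDM-1 was followed by absorbance after >30 min compound preincubation in HEPES pH 7.0 buffer with 1 uM Zn2SO4. For nitrocefin (16.7 uM, 15 min, 485 nm) and meropenem (50 uM, 30 min, 300 nm), each substrate ran on separate plates.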
Regarding `CC(C)NC(=O)C[C@@H]1C[C@H]2O[C@H](CNCc3cnccc3Cl)[C@@H](O)[C@H]2O1`, the “activity, negative = inhibition” value was inactive: -2.18% [at 57.5 µM]. Turning to `Fc1ccc(-c2cnc([C@@H]3COCCN3C3CCC3)[nH]2)cc1`, the “activity, negative = inhibition” value was inactive: -4.73% [at 57.5 µM]. On to `O=C(Nc1ccc2c(c1)OCO2)C1CCc2sc(C(=O)N3CCCC3)cc2C1` (stereo unspecified), for which the “activity, negative = inhibition” value was inactive: 1.17%. To `Cc1cccc(Nc2nc(N)nc(CN3CC[C@@H](N)[C@H](O)C3)n2)c1` belongs inactive: -0.926%. For the compound `CN(C)C(=O)N1CCCn2nc(CNC(=O)c3ccc4[nH]ccc4c3)cc2C1`, the “activity, negative = inhibition” value was inactive: -5.54%.

Take `Cc1ccc(-c2cc(O)c3c(c2)CNCCO3)s1`: the “activity, negative = inhibition” value is inactive: 19.1%. On to `COc1ccc(CNC(=O)[C@@H]2Cc3nc[nH]c3CN2Cc2ccc(Cl)cc2)cc1`, for which the “activity, negative = inhibition” value is inactive: -15.5% [at 57.5 µM]. To `Cc1ccc(-n2nc(C)c([C@@H]3C=C[C@@H](NCc4cccc(C#N)c4)C3)c2C)cc1Cl` belongs inactive: 2.91% [at 57.5 µM]; to `O=C(Cc1ccc(OC(F)(F)F)cc1)N1CC2CC(C1)[C@H]1CCCC(=O)N1C2` (stereo partly specified), inactive: 2.47%.

Turning to `CCCNC(=O)N[C@@H]1CCC[C@@H](C(=O)NCc2ccc(OC)cc2)CC(=O)N(C)C1`, the “activity, negative = inhibition” value is inactive: 11.5% [at 57.5 µM]. To `Cc1c(C(=O)NC2CC(c3nnc(CO)n3C3CC3)C2)n(C)c2c(C)cccc12` (stereo unspecified) belongs inactive: -1.03%. To `COc1ccc(C(=O)N2CCC3(CC2)CC(OCC2CC2)CCO3)cn1` (stereo unspecified) belongs inactive: 6.06%; to `NC(=O)Cc1c[nH]c2ncc(-c3ccccc3F)cc12`, inactive: 3.53% [at 76.7 µM]; to `COCC(=O)N[C@@H]1CN(Cc2ccc(C)cn2)C[C@H]1CO`, inactive: -1.26%. Under `CCNC(=O)N[C@@H]1C=C[C@@H](c2c(C)nn(-c3ccc(OC)cc3)c2C)C1` stands inactive: -0.984% [at 57.5 µM]; under `COCCc1noc(CN(C)c2cc(C(C)C)nc3ccnn23)n1`, inactive: -9.25%. `CC(C)(C)c1cc(CC2(NCc3ccc(Cl)cc3)COC2)no1`: the “activity, negative = inhibition” value is inactive: 1.47% [at 57.5 µM]. Under `CCOCC(=O)N1CCn2nc(Cc3ccccc3)cc2C1` stands inactive: 1.4%; under `COc1ccc2[nH]c(C[C@@H]3C[C@@H](C(C)C)[C@H](CN(Cc4ccccn4)Cc4ccccn4)C=C3C)nc2n1`, inactive: 29.4%; under `CC(C)(C)c1ccc2oc(CNC(=O)CN3C(=O)CNC3=O)nc2c1`, inactive: 1.4%.

On to `O=C(O)c1cccc([S+](=O)([O-])N2CC(CNC(=O)c3ccccc3)C3(CN(c4ccccc4)C3)C2)c1` (stereo unspecified), for which the “activity, negative = inhibition” value is inactive: -5.82%.

Turning to `CCN1CCN(C2(C(=O)NCCc3ccccc3)Cc3ccccc3C2)CC1`, the “activity, negative = inhibition” value is inactive: -0.956%. To `CC1(C(=O)NCc2cccnc2)CCc2cnc(NCc3ccccc3)nc21` (stereo unspecified) belongs inactive: -9.35% [at 57.5 µM]; to `CC(=O)Nc1ccc(CC(=O)N2CCC(C)(c3noc(C)n3)CC2)cc1`, inactive: -0.638%; to `CC(C)Nc1ncc(C(=O)NC2CCCN(CCc3ccccc3)C2)cn1` (stereo unspecified), inactive: 3.55%. Consider `CC[C@@]1(C(=O)O)C[C@H](C(=O)NC(CO)CO)[C@H](c2ccc(F)cc2)N1C`, for which the “activity, negative = inhibition” value is inactive: -7.83%. For the compound `CC(C)(C)CC(=O)N[C@H]1C[C@H]2C(=O)Nc3ccc(-c4cccs4)cc3C(=O)N2C1`, the “activity, negative = inhibition” value is inactive: 1.84% [at 57.5 µM]. Under `CS(=O)(=O)N1CCC(C2CCN(C(=O)Cc3cccs3)C2)CC1` (stereo unspecified) stands inactive: -0.833%; under `O=C(NCCc1ccc(Cl)cc1)c1nc(-c2cc(Cl)cc(Cl)c2)c2ccccn12`, inactive: -5.46%; under `CN(C)c1ccc(-c2nnc([C@H]3CCN(CC4CC4)C3)o2)cc1`, inactive: 3.42% [at 57.5 µM].

For the compound `CC(Cn1cncn1)NC(=O)c1ccc(CCC(C)(C)O)cc1` (stereo unspecified), the “activity, negative = inhibition” value is inactive: 1.28%.

On to `CCC(C)(C)C(=O)N1CC2CC(C1)[C@H]1CCCC(=O)N1C2` (stereo partly specified), for which the “activity, negative = inhibition” value was inactive: -1.47%. Take `CCC(N)(CC)c1cn(CC2CCCN(S(C)(=O)=O)C2)nn1` (stereo unspecified): the “activity, negative = inhibition” value is inactive: -17%. To `CC(=O)N1CCN(Cc2ccc(F)c(C(F)(F)F)c2)CC(O)C1` (stereo unspecified) belongs inactive: -4.75%; to `CCN1C(=O)C2CC3(CCN(C(=O)CCc4c(C)nn(C)c4C)CC3)CN2C1=O` (stereo unspecified), inactive: -4.57%.

Turning to `CCNC(=O)O[C@@H]1CO[C@H]2[C@@H]1OC[C@@H]2NC(=O)Nc1ccc(C(C)C)cc1`, the “activity, negative = inhibition” value was inactive: -8.42% [at 57.5 µM]. Under `O=C(CCc1ccccc1)N1CC[C@H]2COC(=O)N2c2cc(F)ccc2C1` stands inactive: -1.79% [at 57.5 µM]; under `CC[C@H]1CN(C(=O)Nc2cccc(OC)c2)CC[C@H]1CC(=O)NCc1cccnc1`, inactive: -4.68% [at 57.5 µM]; under `COCCOc1ccnc(-c2noc([C@@H]3CCCN3Cc3ccc4c(c3)OCO4)n2)c1`, inactive: 11.4% [at 57.5 µM]. Under `OCc1cccc(-c2ccc3ncc(Nc4ccc(OCCN5CCCC5)cc4)n3n2)c1` stands inactive: 4.15% [at 57.5 µM]. To `Cc1nn(-c2ccc(C(C)(C)C)cc2)c(C)c1[C@@H]1C=C[C@@H](NC(=O)c2ccco2)C1` belongs inactive: -6.21% [at 57.5 µM].

Consider `CC(C)(C)C(=O)N1CC[C@@H](CC(=O)O)[C@@H](CC2=NCCc3cc(F)ccc32)C1`, for which the “activity, negative = inhibition” value is inactive: -17.5% [at 57.5 µM].

As for `Cn1ccc(C(=O)N2CC(CNC(=O)Nc3ccccc3)C3(C2)CN(c2ccccc2)C3)n1` (stereo unspecified), the “activity, negative = inhibition” value was inactive: 2%. To `COCCN1CCC(CN(C)C2CCNCC2)C1` (stereo unspecified) belongs inactive: 0.278%. As for `CCc1ccc(NC(=O)C2CCN(C(=O)c3nnn4cc(C)[nH]c(=O)c34)CC2)cc1`, the “activity, negative = inhibition” value is inactive: -1.83%. As to `Cc1cc(=O)n(CC(=O)Nc2ccc(C)c(Cl)c2)c(N2CCN(c3ccccc3)CC2)n1`, the “activity, negative = inhibition” value is inactive: -7.15%. To `COc1ccc(C(=O)Nc2ccc([C@@H](O)[C@H]3COCC(=O)N3Cc3ccc(F)cc3)cc2)cc1OC` belongs inactive: 3.36%. As for `O=C(c1cc(F)ccc1F)N1CCN(c2cc(-c3ccc(Cl)cc3)[nH]n2)CC1`, the “activity, negative = inhibition” value was inactive: 298%. For `CCc1nc2c(c(-c3ccc(Cl)cc3)n1)CN(S(=O)(=O)c1ccccc1)CC2`, the “activity, negative = inhibition” value is inactive: -1.07%. Under `CCCn1ccc2oc(C)c(C(=O)NCc3ccc(CC)cc3)c2c1=O` stands inactive: 3.92%; under `CN1[C@@H](CCC(=O)Nc2ccccc2)CNC(=O)[C@@H]2[C@H]1CCN2Cc1nc2ccccc2n1C`, inactive: -5.21%.

Turning to `CN(Cc1ccccc1)C(=O)C[C@@H]1O[C@H](CNCc2ccc(F)cc2)[C@@H](O)[C@H]1O`, the “activity, negative = inhibition” value was inactive: -1.97% [at 57.5 µM]. To `O=c1cc(CNCc2nc(-c3ncccn3)no2)[nH]c2ccc(F)cc12` belongs inactive: -23.6%; to `Fc1ccc2c(c1)nc1n2[C@@H](CNC2CCC2)COC1`, inactive: -8.12% [at 76.7 µM]; to `COc1ccccc1CN1C(=O)COC[C@@H]1[C@H](O)c1ccc(NC(=O)CCc2ccccc2)cc1`, inactive: 5.98%. As for `OC(c1cccc(C(F)(F)F)c1)c1nc(Nc2ccccc2)n[nH]1` (stereo unspecified), the “activity, negative = inhibition” value is inactive: 2.34% [at 57.5 µM]. With `COCCN1C(=O)[C@@H]2C[C@@H](CN2Cc2ccccc2)Oc2ccccc21`, the “activity, negative = inhibition” value was inactive: -9.33% [at 57.5 µM].

For `O=C(NC1CC(c2cc(NCCO)ncn2)C1)c1cc2ccccc2[nH]1` (stereo unspecified), the “activity, negative = inhibition” value is inactive: 3.05%. To `O=C(NCc1ccccc1)N1CCCCC1c1nc(-c2cnccn2)n[nH]1` (stereo unspecified) belongs inactive: -16.4%; to `O=C(NCc1ccc(Cl)cc1)[C@@H]1Cc2nc[nH]c2CN1Cc1ccc(Cl)cc1`, inactive: -13.9% [at 57.5 µM]; to `CNC(=O)N1CCC(C2CCN(Cc3ccc(Br)o3)C2)CC1` (stereo unspecified), inactive: -4.75%.

For the origin of these results see PubChem BioAssay AID1794844 (National Center for Advancing Translational Sciences (NCATS), 2023).
